From the supplement of paper PMC11006884
The entries are a selection whose mix differs from that of the whole data set. The data scatter; read single values as rough.

By UniProt entry, the sequences of proteins in these tests, tags left out. Where a name states a change or a piece, a line headed by the entry shows the natural chain unless it says otherwise.
UniProt Q96F86: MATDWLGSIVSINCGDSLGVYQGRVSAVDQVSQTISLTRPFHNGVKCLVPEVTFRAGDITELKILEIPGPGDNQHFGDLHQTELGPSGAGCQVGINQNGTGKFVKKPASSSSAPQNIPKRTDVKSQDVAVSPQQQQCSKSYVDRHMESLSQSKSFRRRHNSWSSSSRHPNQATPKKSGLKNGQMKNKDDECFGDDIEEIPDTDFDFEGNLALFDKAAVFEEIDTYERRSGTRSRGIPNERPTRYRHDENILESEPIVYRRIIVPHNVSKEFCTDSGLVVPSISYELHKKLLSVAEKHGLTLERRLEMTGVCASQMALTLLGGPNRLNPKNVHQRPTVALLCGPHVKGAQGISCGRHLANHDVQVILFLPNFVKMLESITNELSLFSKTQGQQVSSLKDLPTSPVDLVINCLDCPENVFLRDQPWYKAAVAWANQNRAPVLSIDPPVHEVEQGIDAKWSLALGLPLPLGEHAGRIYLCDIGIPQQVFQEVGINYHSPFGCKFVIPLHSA
UniProt Q93009, whole entry, looked up: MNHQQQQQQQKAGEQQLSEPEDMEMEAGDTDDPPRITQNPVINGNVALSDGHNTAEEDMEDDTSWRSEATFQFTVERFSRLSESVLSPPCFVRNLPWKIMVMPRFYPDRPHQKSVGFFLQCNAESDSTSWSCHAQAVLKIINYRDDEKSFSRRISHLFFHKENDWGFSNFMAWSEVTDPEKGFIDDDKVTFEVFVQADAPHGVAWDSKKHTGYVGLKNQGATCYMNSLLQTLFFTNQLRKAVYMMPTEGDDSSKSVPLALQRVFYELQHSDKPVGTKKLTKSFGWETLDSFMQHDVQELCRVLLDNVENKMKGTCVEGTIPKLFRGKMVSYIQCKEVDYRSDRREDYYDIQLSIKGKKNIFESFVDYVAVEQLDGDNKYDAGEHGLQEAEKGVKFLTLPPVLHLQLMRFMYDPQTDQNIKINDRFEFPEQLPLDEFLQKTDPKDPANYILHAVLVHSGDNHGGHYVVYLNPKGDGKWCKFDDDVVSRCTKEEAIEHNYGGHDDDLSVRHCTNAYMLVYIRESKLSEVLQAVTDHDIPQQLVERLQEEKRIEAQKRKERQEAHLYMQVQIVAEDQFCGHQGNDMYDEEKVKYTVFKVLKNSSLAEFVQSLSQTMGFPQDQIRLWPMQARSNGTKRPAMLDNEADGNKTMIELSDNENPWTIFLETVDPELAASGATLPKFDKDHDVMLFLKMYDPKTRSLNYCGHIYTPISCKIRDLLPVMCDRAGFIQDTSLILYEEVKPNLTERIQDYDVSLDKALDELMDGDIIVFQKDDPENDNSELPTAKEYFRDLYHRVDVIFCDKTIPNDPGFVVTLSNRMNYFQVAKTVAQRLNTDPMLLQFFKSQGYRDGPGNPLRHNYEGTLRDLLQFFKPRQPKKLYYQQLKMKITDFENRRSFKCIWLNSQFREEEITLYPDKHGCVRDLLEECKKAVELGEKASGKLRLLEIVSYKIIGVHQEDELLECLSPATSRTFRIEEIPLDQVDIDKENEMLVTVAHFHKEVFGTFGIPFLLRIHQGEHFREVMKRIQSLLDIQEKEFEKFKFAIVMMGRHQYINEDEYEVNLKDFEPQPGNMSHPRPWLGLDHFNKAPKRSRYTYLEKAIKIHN
UniProt Q96AB3: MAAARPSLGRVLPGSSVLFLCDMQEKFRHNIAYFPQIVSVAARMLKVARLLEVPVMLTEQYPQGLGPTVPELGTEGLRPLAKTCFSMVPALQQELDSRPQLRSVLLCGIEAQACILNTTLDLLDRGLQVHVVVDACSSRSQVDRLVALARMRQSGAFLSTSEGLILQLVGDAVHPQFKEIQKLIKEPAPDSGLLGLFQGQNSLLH
UniProt Q92576, whole entry, looked up: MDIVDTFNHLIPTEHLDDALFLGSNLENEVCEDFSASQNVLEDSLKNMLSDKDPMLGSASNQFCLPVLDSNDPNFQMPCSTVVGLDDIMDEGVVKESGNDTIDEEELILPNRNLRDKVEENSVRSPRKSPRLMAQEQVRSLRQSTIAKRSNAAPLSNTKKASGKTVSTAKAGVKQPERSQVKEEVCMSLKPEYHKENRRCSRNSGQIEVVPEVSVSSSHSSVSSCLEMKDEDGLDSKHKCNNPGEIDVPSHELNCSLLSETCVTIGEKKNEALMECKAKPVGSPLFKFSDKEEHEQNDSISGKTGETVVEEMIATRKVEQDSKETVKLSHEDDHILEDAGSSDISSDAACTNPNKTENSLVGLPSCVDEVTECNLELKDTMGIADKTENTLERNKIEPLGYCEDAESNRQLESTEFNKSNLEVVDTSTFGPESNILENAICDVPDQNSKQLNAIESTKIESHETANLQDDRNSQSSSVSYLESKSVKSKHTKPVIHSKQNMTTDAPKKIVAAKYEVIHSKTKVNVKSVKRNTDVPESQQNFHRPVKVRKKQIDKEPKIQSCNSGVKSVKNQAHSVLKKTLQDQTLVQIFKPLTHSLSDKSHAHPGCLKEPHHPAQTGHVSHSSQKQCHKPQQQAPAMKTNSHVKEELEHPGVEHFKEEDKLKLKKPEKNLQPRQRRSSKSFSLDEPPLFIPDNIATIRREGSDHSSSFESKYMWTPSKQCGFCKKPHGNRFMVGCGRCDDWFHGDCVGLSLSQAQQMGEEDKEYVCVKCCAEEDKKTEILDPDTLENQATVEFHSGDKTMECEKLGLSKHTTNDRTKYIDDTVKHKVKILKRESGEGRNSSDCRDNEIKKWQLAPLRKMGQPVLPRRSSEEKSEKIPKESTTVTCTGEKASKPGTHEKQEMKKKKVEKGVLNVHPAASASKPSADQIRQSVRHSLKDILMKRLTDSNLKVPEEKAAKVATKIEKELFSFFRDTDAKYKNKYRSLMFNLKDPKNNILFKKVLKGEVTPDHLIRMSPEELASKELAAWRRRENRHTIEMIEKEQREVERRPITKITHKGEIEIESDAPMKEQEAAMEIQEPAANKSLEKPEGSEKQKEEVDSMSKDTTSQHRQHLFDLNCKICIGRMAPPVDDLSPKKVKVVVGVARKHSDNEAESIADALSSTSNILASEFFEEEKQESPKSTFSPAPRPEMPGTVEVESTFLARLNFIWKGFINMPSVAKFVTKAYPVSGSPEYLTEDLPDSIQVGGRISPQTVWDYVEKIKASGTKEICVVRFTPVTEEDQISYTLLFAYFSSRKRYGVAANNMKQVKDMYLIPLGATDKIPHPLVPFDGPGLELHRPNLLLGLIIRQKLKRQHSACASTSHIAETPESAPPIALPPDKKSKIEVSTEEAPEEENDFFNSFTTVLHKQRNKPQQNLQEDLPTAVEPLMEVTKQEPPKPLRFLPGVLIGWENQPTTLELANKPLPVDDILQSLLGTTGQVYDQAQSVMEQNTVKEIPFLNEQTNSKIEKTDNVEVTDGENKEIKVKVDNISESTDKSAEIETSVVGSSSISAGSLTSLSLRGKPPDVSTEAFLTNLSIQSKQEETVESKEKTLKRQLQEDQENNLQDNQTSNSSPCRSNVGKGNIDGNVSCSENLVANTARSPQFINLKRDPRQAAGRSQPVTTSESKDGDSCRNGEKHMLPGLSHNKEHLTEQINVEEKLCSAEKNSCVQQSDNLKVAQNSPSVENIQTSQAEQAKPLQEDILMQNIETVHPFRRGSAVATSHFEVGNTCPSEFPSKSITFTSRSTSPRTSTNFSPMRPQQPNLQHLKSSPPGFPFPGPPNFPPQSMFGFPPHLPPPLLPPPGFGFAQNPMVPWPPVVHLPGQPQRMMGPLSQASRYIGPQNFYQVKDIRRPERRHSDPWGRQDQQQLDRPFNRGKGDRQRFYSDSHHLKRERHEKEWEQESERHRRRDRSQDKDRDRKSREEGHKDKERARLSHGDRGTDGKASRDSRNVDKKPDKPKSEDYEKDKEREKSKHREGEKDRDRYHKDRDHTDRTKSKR
UniProt Q96HA1, whole entry, looked up: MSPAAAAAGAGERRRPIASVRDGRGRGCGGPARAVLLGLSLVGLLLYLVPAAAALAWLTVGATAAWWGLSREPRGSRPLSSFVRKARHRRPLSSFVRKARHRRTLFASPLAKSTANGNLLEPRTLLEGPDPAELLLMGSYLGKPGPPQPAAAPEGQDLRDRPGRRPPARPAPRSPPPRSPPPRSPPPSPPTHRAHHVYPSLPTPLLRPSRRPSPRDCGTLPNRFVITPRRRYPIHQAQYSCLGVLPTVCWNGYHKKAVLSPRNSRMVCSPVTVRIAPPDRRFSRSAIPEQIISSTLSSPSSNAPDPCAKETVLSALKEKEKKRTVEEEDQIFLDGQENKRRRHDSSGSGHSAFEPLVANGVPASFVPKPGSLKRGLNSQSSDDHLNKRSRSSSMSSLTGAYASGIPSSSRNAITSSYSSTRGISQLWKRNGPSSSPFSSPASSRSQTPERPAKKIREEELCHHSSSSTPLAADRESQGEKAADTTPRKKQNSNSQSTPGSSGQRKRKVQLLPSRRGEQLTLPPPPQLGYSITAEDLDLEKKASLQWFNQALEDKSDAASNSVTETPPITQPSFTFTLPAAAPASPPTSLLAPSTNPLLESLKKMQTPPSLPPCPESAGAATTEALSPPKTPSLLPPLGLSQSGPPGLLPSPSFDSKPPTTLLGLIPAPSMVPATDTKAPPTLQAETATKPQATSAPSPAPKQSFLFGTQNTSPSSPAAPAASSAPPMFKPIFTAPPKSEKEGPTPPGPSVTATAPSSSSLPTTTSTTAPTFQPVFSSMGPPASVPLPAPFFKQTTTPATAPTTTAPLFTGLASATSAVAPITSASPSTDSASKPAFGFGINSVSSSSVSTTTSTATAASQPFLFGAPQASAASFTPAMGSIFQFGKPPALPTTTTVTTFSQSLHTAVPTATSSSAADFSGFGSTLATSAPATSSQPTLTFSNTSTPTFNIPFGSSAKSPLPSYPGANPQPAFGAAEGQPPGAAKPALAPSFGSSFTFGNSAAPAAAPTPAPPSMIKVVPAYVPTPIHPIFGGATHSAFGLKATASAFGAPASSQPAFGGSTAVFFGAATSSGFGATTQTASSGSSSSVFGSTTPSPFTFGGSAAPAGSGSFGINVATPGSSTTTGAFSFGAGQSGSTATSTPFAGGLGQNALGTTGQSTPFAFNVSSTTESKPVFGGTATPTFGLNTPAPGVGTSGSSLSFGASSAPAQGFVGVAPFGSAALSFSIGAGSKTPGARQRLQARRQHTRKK
UniProt Q92785, whole entry, looked up: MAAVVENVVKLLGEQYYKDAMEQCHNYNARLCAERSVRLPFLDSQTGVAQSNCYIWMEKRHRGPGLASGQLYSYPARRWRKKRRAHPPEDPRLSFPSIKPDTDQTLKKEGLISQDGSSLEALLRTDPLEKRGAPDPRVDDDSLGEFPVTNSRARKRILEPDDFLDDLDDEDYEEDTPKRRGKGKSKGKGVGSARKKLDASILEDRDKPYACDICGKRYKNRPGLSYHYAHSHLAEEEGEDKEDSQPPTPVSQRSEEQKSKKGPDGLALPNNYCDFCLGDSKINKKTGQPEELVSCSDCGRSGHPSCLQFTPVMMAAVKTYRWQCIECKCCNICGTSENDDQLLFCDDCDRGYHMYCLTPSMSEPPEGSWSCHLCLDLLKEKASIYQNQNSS
UniProt Q92922, whole entry, looked up: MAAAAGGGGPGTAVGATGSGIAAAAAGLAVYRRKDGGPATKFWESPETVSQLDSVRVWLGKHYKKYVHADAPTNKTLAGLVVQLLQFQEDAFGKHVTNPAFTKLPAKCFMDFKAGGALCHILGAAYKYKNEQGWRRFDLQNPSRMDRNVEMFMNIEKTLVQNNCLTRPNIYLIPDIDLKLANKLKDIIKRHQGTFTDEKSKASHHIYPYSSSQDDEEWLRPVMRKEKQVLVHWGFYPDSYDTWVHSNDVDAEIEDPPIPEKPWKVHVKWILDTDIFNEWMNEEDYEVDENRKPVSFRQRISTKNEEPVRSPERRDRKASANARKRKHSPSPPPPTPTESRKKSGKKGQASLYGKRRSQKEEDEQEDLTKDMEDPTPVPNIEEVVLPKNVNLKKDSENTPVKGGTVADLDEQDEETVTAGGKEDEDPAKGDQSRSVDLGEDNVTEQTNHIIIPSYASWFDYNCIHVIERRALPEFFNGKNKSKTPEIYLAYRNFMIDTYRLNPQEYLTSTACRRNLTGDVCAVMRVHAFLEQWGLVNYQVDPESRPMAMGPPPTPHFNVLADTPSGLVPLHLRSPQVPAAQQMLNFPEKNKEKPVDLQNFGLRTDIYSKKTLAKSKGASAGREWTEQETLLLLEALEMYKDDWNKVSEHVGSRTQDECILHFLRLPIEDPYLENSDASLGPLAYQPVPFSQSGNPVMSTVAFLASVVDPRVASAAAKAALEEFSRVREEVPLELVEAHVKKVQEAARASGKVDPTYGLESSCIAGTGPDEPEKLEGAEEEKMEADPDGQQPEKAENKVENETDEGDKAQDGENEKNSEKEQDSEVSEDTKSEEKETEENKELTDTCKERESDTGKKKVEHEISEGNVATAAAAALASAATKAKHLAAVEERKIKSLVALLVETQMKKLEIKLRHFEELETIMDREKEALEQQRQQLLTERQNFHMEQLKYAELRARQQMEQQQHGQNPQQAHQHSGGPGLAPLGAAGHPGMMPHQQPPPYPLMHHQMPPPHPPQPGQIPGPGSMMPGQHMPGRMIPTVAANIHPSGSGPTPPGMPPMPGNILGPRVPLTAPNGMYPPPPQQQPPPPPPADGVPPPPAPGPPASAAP

The targets below were run with COC(=O)/C=C/c1ccccc1 [methyl cinnamate] (assay: log2 ratio of iodoacetamide-alkyne labeling of the cysteine site, DMSO over compound (competition); higher = stronger covalent engagement of the cysteine by the compound, active = 1 or more). Settings: 500 µM; treatment time 1 h; system: HEK293T cell lysate.
Outline: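 The log2 competition ratio per cysteine is defined as mean reporter intensity in control channels over mean reporter intensity in compound channels. Lysate from HEK293T cells (2 mg/mL) received electrophile (500 µM) or vehicle for 1 h at ambient temperature, followed by iodoacetamide alkyne for 1 h. Samples were clicked to sCIP-TMT reagents, pooled, trypsin-digested overnight at 37 °C, streptavidin-enriched, acid-eluted and run on Orbitrap Eclipse LC-MS/MS with FAIMS, with quantification in FragPipe. Three replicates with duplicate channels were used, and any cysteine quantified in only one replicate was excluded.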

log2 ratio of iodoacetamide-alkyne labeling, inactive:
MRPL38 C143 (UniProt Q96DV4) 0.131
ZNF428 C111 (UniProt Q96B54) 0.213
NT5C3B C56 (UniProt Q969T7) 0.359
R3HDM4 C29 (UniProt Q96D70) 0.0512
EDC3 C91 (UniProt Q96F86) -0.0883
NECTIN2 C446 (UniProt Q92692) 0.0831
USP7 C315 (UniProt Q93009) 0.359
ISOC2 C84 (UniProt Q96AB3) 0.14
OTUD5 C434 (UniProt Q96G74) 0.152
UniProt Q969X6_C21 -0.0137
PHF3 C885 (UniProt Q92576) 0.532
USP9X C2075 (UniProt Q93008) 0.0972
UniProt Q92599_C80 -0.111
KHSRP C379 (UniProt Q92945) 0.157
POM121 C461 (UniProt Q96HA1) 0.0997
UniProt Q96CS4_C70 0.21
KAT5 C11 (UniProt Q92993) 0.239
EDC3 C47 (UniProt Q96F86) 0.205
ZNF428 C115 (UniProt Q96B54) 0.0995
RAD51AP1 C254 (UniProt Q96B01) 0.306
APIP C97 (UniProt Q96GX9) 0.152
RAD50 C1302 (UniProt Q92878) 0.24
UniProt Q92616_C1535 -0.0175
PSMG2 C168 (UniProt Q969U7) 0.0102
GCDH C176 (UniProt Q92947) 0.0971
PHF3 C1631 (UniProt Q92576) 0.42
TNPO1 C103 (UniProt Q92973) 0.27
DPF2 C374 (UniProt Q92785) 0.0459
NDRG1 C289 (UniProt Q92597) 0.342
USP7 C961 (UniProt Q93009) 0.264
PHF3 C1771 (UniProt Q92576) 0.324
USP9X C1212 (UniProt Q93008) 0.15
UniProt Q92888_C537 0.0706
DAZAP1 C63 (UniProt Q96EP5) 0.191
HSPH1 C290 (UniProt Q92598) 0.0473
ANP32B C27 (UniProt Q92688) 0.218
SMARCC1 C119 (UniProt Q92922) 0.0907

Fetched one by one from the entries so far, 2 records:
log2 ratio of iodoacetamide-alkyne labeling, inactive:
ISOC2 C84 (UniProt Q96AB3) 0.14
USP7 C961 (UniProt Q93009) 0.264
